Measured values: publication PMC11324527, “Cryo-EM architecture of a near-native stretch-sensitive membrane microdomain” (Nature, 2024)
These are yes or no findings as the source states them, for the method shown. For some of these results: Binding seen in cells or lysates may run through a third protein. Some results given as binding are weak or reduced against the parent protein; the word gives no strength.

Protein sequences, listed by entry. Tags and fused reporters are not part of them.
UniProt P32600: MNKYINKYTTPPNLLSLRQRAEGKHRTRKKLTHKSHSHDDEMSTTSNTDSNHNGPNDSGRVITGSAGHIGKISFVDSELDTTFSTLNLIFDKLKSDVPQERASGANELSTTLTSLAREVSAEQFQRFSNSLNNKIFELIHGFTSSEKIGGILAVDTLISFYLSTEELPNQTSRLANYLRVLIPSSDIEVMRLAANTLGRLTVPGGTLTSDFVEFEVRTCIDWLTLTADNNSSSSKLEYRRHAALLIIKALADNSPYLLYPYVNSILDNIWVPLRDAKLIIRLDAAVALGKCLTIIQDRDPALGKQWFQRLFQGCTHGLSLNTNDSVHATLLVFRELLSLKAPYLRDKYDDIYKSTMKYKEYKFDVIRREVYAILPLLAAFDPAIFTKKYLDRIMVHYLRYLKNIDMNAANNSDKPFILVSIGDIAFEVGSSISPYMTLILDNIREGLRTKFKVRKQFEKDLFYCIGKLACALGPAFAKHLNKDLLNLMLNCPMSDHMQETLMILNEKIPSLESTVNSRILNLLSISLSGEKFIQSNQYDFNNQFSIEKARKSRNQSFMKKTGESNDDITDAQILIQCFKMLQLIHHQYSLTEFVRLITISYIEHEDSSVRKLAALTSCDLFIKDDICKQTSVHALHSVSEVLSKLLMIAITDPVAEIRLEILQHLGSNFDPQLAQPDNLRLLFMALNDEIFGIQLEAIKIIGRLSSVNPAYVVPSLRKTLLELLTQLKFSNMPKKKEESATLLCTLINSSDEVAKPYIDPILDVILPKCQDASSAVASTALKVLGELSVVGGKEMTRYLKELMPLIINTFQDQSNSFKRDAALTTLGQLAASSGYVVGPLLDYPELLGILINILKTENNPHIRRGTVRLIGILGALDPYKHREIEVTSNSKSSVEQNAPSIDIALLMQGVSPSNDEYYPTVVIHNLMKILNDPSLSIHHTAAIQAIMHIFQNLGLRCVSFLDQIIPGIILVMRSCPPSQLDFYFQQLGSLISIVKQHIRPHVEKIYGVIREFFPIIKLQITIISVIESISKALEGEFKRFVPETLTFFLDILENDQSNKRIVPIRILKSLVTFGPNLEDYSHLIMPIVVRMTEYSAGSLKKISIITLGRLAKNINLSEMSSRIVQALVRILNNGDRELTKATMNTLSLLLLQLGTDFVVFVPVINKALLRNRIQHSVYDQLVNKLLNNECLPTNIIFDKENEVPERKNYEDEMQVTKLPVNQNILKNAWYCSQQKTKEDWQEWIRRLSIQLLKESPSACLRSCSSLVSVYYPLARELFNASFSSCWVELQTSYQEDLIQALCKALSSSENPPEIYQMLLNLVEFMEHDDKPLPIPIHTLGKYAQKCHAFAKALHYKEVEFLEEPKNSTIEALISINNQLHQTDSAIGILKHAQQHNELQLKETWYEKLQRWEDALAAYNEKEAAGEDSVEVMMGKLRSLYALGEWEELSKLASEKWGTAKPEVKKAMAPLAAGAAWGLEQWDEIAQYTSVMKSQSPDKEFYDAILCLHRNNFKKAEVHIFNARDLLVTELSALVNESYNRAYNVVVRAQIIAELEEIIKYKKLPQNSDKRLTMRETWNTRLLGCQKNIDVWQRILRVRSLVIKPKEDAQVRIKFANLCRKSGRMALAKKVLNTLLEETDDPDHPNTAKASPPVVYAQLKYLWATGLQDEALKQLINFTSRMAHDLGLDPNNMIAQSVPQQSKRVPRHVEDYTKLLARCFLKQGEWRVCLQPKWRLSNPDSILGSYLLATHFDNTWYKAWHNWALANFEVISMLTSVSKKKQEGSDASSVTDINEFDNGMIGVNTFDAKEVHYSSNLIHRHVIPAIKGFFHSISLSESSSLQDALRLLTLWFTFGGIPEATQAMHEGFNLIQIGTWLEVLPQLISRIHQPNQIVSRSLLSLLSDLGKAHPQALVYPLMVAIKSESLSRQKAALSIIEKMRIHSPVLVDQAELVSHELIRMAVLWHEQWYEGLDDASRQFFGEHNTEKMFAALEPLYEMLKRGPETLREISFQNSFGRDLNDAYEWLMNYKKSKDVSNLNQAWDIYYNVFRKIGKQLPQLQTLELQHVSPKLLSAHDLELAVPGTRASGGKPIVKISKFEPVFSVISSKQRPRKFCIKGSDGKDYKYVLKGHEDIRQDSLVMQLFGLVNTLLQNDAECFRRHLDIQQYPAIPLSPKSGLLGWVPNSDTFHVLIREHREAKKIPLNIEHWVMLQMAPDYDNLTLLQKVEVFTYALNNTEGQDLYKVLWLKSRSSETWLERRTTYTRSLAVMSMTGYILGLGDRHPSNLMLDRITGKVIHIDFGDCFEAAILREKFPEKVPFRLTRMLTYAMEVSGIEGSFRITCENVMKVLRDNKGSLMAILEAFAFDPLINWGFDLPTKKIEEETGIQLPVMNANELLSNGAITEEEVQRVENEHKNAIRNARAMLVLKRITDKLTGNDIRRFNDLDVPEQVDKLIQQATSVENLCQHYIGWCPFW

B1: Pil1 (native-source eisosome) (natural protein, S. cerevisiae (endogenous in yeast), UniProt P53252 1-339, looked up)
chain: MHRTYSLRNSRAPTASQLQNPPPPPSTTKGRFFGKGGLAYSFRRSAAGAFGPELSRKLSQLVKIEKNVLRSMELTANERRDAAKQLSIWGLENDDDVSDITDKLGVLIYEVSELDDQFIDRYDQYRLTLKSIRDIEGSVQPSRDRKDKITDKIAYLKYKDPQSPKIEVLEQELVRAEAESLVAEAQLSNITRSKLRAAFNYQFDSIIEHSEKIALIAGYGKALLELLDDSPVTPGETRPAYDGYEASKQIIIDAESALNEWTLDSAQVKPTLSFKQDYEDFEPEEGEEEEEEDGQGRWSEDEQEDGQIEEPEQEEEGAVEEHEQVGHQQSESLPQQTTA
notes: Pil1, BAR-domain eisosome protein of S. cerevisiae; model built up to residue 274 (C-terminal region from residue 275 removed, no density); Stands in the tubules as dimers in a helical lattice; also called Pil1/Lsp1; PIL1_YEAST; source: endogenous, untagged, S. cerevisiae
B2: Avo3 (protein, UniProt P40061 1-1430)
chain: MSIPHSAKQSSPLSSRRRSVTNTTPLLTPRHSRDNSSTQISSAKNITSSSPSTITNESSKRNKQNLVLSTSFISTKRLENSAPSPTSPLMARRTRSTMTKALLNLKAEINNQYQELARLRKKKDDIEHLRDSTISDIYSGSYSTNHLQKHSMRIRANTQLREIDNSIKRVEKHIFDLKQQFDKKRQRSLTTSSSIKADVGSIRNDDGQNNDSEELGDHDSLTDQVTLDDEYLTTPTSGTERNSQQNLNRNSTVNSRNNENHSTLSIPDLDGSNKVNLTGDTEKDLGDLENENQIFTSTTTEAATWLVSDYMQSFQEKNVNPDFIAQKANGLVTLLKEHSEIRKDLVLTSFMSSIQNLLLNGNKLIAASAYRVCRYLINSSIFIDELLELRLDAFIIISLAKDNSFQIEREQALKMVRRFIEYNNGVTQGIMQAIISCVEKPEDSLRHMALETLLELCFVAPEMVKECRGMRVIEGFLQDYTSFSLASVILDTILQLMATHKTRQHFLEDFNVSVLTTVFSDTNTKSNVNVEKMQNASTLISITLNSYNGFMLFSNNNFKPLKQLVSFFQIPICAQYLIDIFLDVLKIKPLPYKPRGRHSHSFKPIPSQYYKECMSVNQRLALIVLILENSEFVPHLLELLNEEDRDDHLVAKGRYLLTEYFNLRMNLVDKKYTSVSKPIYKENFTYVNETFQFKKIAYKMNRNRNTIGMSGIDYAQNIKSFSKNIKENTLLREVDDFRFRRMVYDSKVLQTKDFTRWNWNIINELLEGPLLNKKQLEELVKSTKFIRRLLVFYRPLRLRFSNVNKGAKLSQKYVQVGCQFFKTLTATPEGMKILMDDTKIIPQLASLMFRAMEGNISGNIFNKNKLREKIIFGYFKFIGILTQSKNGVHILTRWNFFTVIYKMFQFESKLGLEFLLLTIPELDLKYSSHCRVIIGKALVVANEKVRIEATKHIGDKLKELLSTKESDLKLKANKVKLQQFKMEMLTRQLYDLSPSVVAVADQALYECIVAGNGSEELGTSFRMFLNQMVFIRSPILFELLSRPYGFQLLNEINFVKEERDSWLSKKNIEYVHIVEEFLKKNESINAKSLTFQQKSRLPLHFYESLTKTEDGILLLSQTGDLVTFMNVIKKYVNGNNMATVENAKEILDLKAALWCVGFIGSTELGIGLLDNYSLVEDIIEVAYNASVTSVRFTAFYVLGLISMTREGCEILDEMGWNCCVSVQDEPIGIALPNRLDRFLSYNEHKWSAFGEYSDEMIVFNKSDGDLIEKCLPIEFDLDKLLKEKDTAENPLNEKIITNKYDNDITSQTITVSGENSSLFANEGLSSPYVTQYRNDDDSIESKVLHIVSQLGNHILSNHAVKEITEINNKYGPRLFENEKMFFKVFNMMSKYRFKPHVRKFLCGLFINNRALENVIRHDNKRDKRPANFTR
B3: Avo1 (protein, UniProt Q08236 1-1176)
chain: MDTVTVLNELRAQFLRVCPEKDQMKRIIKPYIPVDEFNTEQCLDSSIRELYMNSDGVSLLPELESPPVSKDFMENYASLGKMRIMRENEGQKGKANQNLIGAEKTERDEEETRNLQDKSAKNTLIVEENGTLRYNPLNSSASNSLLNDDDHTSGKHHKTSSKEDSYLNSSMEMQKKSSKRSSLPFVRIFKSRRDHSNTSGNKNVMNTTNTRAKSSTLHPPGARHNKKGSKFDMNFDFDENLEEEDDDDDDDEEGDDIHSQFFQLDDDFDAKGSGASPAHKGINGMSNNKNNTYTNNRNSISILDDRESSNGNIGSASRLKSHFPTSQKGKIFLTDNKNDGQKSDSLNANKGIHGDGSSASGNGSVSRDGLTETESNNISDMESYINEKDLDDLNFDTVTSNINKTVSDLGGHESTNDGTAVMNRDSKDSRSNSNEFNAQNRDRITPGSSYGKSLLGSEYSEERYSNNDSSTMESGEMSLDSDMQTNTIPSHSIPMSMQKYGIYHGDDDSTLNNVFDKAVLTMNSSRHPKERRDTVISGKEPTSLTSSNRKFSVSSNLTSTRSPLLRGHGRTSSTASSEHMKAPKVSDSVLHRARKSTLTLKQDHSQPSVPSSVHKSSKEGNILIEKTTDYLVSKPKASQLSNMFNKKKKRTNTNSVDVLEYFSFVCGDKVPNYESMGLEIYIQASKKYKRNSFTTKVRKSSTIFEVIGFALFLYSTEKKPDNFEEDGLTVEDISNPNNFSLKIVDEDGEPFEDNFGKLDRKSTIQSISDSEVVLCKVDDAEKSQNEIETPLPFETGGGLMDASTLDANSSHDTTDGTINQLSFYKPIIGNEDDIDKTNGSKIIDVTVYLYPNVNPKFNYTTISVLVTSHINDILVKYCKMKNMDPNEYALKVLGKNYILDLNDTVLRLDGINKVELISKKDARELHLEKMKPDLKKPVLPTIQSNDLTPLTLEPLNSYLKADAGGAVAAIPENTKVTSKAKKISTKYKLGLAKQHSSSSVASGSVSTAGGLANGNGFFKNKNSSKSSLHGTLQFHNINRSQSTMEHTPDTPNGVGDNFQDLFTGAYHKYKVWRRQQMSFINKHERTLAIDGDYIYIVPPEGRIHWHDNVKTKSLHISQVVLVKKSKRVPEHFKIFVRREGQDDIKRYYFEAVSGQECTEIVTRLQNLLSAYRMNHK

What was measured:
[1] = molecular target: T1, Bit61-TAP (S. cerevisiae (endogenous in yeast)) (UniProt P47041); test: pull-down; Bit61-TAP from cleared yeast lysate on IgG-coupled Dynabeads, 50 mM PIPES pH 7, 300 mM NaCl, CHAPS, 4 °C, eluted with TEV protease; Coomassie-stained gel
T1 sequence: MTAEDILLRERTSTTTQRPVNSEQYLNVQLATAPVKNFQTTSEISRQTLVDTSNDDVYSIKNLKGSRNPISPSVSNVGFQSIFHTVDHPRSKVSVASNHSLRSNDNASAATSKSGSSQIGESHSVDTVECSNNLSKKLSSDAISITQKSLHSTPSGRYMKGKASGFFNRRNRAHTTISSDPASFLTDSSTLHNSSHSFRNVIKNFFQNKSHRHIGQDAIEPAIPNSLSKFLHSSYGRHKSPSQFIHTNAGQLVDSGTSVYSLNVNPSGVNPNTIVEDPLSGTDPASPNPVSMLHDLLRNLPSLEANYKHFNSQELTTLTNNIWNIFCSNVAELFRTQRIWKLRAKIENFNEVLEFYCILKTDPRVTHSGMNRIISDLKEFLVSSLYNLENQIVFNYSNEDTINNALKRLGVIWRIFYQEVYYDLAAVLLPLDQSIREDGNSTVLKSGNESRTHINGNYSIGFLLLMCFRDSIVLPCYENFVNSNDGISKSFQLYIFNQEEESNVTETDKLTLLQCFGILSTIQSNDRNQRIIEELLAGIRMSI

[2] = molecular target: Pil1 (native-source eisosome) (S. cerevisiae (endogenous in yeast)) (UniProt P53252); test: cryo-EM structure; native-source eisosome tubules isolated from S. cerevisiae with bound plasma membrane bilayer; helical reconstruction of nine tubule types, symmetry expansion and density subtraction; dimers in a helical lattice

| Molecule | binding [1] | binding [2] |
| --- | --- | --- |
| Tor2 (from UniProt P32600 1-2474) | binds | – |
| B1 | – | binds |
| B2 | binds | – |
| B3 | binds | – |
